Experimental findings from publication doi:10.1101/2020.05.12.091587 are described below.

Sequences of proteins named here, by UniProt entry; tags and fusion partners are left off.
UniProt P07737: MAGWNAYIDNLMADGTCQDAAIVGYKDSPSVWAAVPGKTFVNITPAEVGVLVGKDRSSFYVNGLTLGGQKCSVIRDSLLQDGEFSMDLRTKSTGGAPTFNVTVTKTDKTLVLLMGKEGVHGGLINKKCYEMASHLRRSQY

No constants are given. Whether binding was seen depends on the method and setting. Some entries that bind do so weakly or less than the wild type.

This assay concerns the target Recombinant Human Profilin 1 (human) (UniProt P07737). As to the kind of experiment: intrinsic tryptophan fluorescence emission spectra.

B1: proline-rich peptide ac…am, covering residues 166-175 of hCPEB3 (peptide)
peptide: GPPPPAPAPQP
modifications: N-terminal acetyl; C-terminal amide
In the case of B1, the binding entry is given as “binds weakly”.
